# Measurements taken from patent US6472516B1, “Progestin-regulated gene” (The Garvan Institute of Medical Research, priority 1995, dated 2002).
# At least one structure is not confirmed: it was looked up by name or label, or the drawing left a doubt.
# Key:
# Format in all cases: cell-based, human
# [1] = system: PRG1 mRNA; assay: Northern analysis of PRG1 mRNA expression in T-47D cells
# Procedure: (§1) The sources and maintenance of the human breast cancer cell lines used in this study were as described previously (33). 184 and 184B5 normal breast epithelial cells were the kind gift of Dr. M. Stampfer (University of California, Berkley, Calif.) and were maintained in mammary epithelial growth medium (Clonetics, San Diego, Calif.). Tissue culture experiments in serum-free medium were performed as previously described (6, 27). Briefly, T-47D cells were taken from stock cultures and passaged for 6 days in phenol red-free RPMI medium supplemented with 10% charcoal-treated fetal calf serum (FCS). During this time the cells received two changes of medium at 1- to 3-day intervals. The cells were replated into replicate 150 cm^2 flasks in medium containing 10% charcoal-treated FCS and the medium replaced with serum-free medium on the next two days. […] Cell cycle phase distribution was determined by analytical DNA flow cytometry, as previously described (6, 34). […]
# (§2) Cells harvested from triplicate 150 cm^2 flasks were pooled and RNA extracted by a guanidinium-isothiocyanate-cesium chloride procedure and Northern analysis was performed as previously described with 20 μg of total RNA per lane (6, 11). […] The mRNA abundance was quantified by densitometric analysis of autoradiographs using Molecular Dynamics Densitometer and software (Molecular Dynamics, Sunnyvale, Calif.). […]
# [2] = system: PRG1 mRNA; assay: Northern analysis of PRG1 mRNA expression in MCF-7 cells
# Procedure: as §1, §2
# [3] = system: PRG1 mRNA; assay: Northern analysis of PRG1 mRNA expression in MDA-MB-231 cells
# Procedure: as §1, §2
Compound,"Inhibition of progestin-induced PRG1 expression ([1]; serum-free medium with insulin, RU 486 100 nM simultaneously with ORG 2058 10 nM, 3 h)","Abrogation of ORG 2058 induction of PRG1 mRNA ([2]; MCF-7, in presence of serum, RU 486 100 nM with ORG 2058 10 nM, 3 h, compared with T-47D)","Increase in PRG1 mRNA (in words) ([3]; MDA-MB-231 (GR-positive), 100 nM, 3 and 6 h)","PRG1 mRNA level at 6 h after the decrease at 3 h (in words) ([3]; MDA-MB-231, 6 h, ORG 2058 10 nM, dexamethasone 100 nM)",Increase in PRG1 mRNA (in words) ([1]; 3 h (results not shown)),"Increase in PRG1 mRNA (in words) ([2]; MCF-7 (GR-positive), 100 nM, 3 and 6 h)"
CC#C[C@]1(O)CC[C@H]2[C@@H]3CCC4=CC(=O)CCC4=C3[C@@H](c3ccc(N(C)C)cc3)C[C@@]21C [RU 486],complete inhibition,not quite as pronounced,–,–,–,–
"C[C@@H]1C[C@H]2[C@@H]3CCC4=CC(=O)C=C[C@]4(C)[C@@]3(F)[C@@H](O)C[C@]2(C)[C@@]1(O)C(=O)CO [dexamethasone, 9-fluro-11,17,21-trihydroxy-16-methylpregn-1,4-diene-3,20-dione]",–,–,No increase,some recovery,no increase,No increase
